# Assay results from the supplement of paper PMC8728848.
# This is one part of the list.
# B1: PX14343I-pdi-501-30-501 (Parabacteroides distasonis) (protein)
# chain: SDQYSTETFWKTKEHASAGIMGCYNALKLWRSLHTMEFDMLTANAMPYNEANGTQAIGKGEHLSTTALIGSLWKNCYVGIGRTNTFIANVGGVDMDESEKAKMVGEAKFLRAFYYLSLVDKFGGVPLIIDAPNADEQAELPRNSKEEVVNQIVKDLEEAAAVLPDTYASSDLGRATKGAALALKARTLLYNSRWAEAAQAAKQVMESGVYQLFNDYRHFFSEDNKYNCEVIFDIEAKLPEYPTDYDQNIWRLNRPAPLKELVDTYLCVDGKTIEESPLYDPTRPYENRDPRLLKSIVCIGYPYLGKTITKEDVATTGFGVKKYTSYEDDVTIPLVERSAFNFILIRYAEVLLTYAEAQNEASGPDQSVYDAINQLRRRPDINMPEVPKGLTKDQMREVIRRERRIELTFEGLYYSDILRWKTAEKENNGMMHNYEGIEVVKRSFNPKRDYLWPIPYNQTVLNPNLEQNPNWD
# Key:
# [1] = biological target: Neu5Gc(a2-8)Neu5Gc(a2-6)Gal(b1-4)GlcNAc; assay: glycan array binding signal (z-score within array); higher = stronger binding; details: glycan notation: IUPAC condensed, linker removed
# Method in brief: (§1)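 The binding signal is a Z-score computed within each array and averaged over linkers. Arrays of the same protein sequence at different concentrations or buffers were also averaged together. Data originate from 3228 arrays in the Consortium for Functional Glycomics database, kept only where the protein sequence was available.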
# [2] = biological target: Neu5Gc(b2-6)Gal(b1-4)GlcNAc; assay: as above; details: glycan notation: IUPAC condensed, linker removed
# Method in brief: as §1
binder,measurement,setting,value
B1,glycan array binding signal (z-score),[1],0.592
same,glycan array binding signal (z-score),[2],0.015
